The target in experiment [1] is T1, 6myc-Erv46 (S. cerevisiae) (UniProt P39727).
T1 sequence: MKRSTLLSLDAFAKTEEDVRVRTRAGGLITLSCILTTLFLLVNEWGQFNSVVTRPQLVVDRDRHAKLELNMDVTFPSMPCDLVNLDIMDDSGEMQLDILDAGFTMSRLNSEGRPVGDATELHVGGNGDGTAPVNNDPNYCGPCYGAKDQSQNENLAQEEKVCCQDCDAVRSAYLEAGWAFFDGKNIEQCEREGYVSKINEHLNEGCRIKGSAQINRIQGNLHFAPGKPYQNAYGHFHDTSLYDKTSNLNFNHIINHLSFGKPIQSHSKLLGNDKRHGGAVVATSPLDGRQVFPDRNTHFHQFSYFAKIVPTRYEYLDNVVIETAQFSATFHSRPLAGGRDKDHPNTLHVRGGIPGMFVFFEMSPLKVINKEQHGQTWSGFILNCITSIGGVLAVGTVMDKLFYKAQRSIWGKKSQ
Briefly: co-IP; Δerv41 or Δerv46 cells expressing 6myc-Erv41 or 6myc-Erv46 and Ktr4-3HA or Ktr3-3HA; glass-bead lysate solubilized with 1% Triton X-100 (text; the legend says prepared as in Fig. 4); precipitated with anti-myc mAb 9E10; blotted with anti-HA, and with anti-Erv41 and anti-Erv46.

Experiment [2] concerns the target T2, Ktr4-3HA (S. cerevisiae) (UniProt P38131).
T2 sequence: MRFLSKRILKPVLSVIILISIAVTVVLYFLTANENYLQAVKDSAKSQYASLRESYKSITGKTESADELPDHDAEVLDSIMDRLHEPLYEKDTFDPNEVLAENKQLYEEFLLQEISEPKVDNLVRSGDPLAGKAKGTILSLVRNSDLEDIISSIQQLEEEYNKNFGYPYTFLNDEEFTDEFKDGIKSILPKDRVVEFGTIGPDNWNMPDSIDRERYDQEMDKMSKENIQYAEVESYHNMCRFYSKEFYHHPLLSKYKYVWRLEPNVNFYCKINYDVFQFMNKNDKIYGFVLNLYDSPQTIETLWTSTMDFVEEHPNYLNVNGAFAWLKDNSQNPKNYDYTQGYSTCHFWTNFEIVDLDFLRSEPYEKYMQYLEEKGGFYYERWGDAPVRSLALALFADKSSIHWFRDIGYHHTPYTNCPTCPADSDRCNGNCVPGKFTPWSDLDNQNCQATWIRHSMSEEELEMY
The experiment is described as follows: co-IP; Δsvp26 strains expressing HA-tagged Kre2-family proteins and Svp26-FLAG; glass-bead lysate solubilized with 1% digitonin; precipitated with anti-HA mAb; Svp26-FLAG detected with anti-FLAG mAb.

In another experiment the target is T3, Kre2-3HA (S. cerevisiae) (UniProt P27809).
T3 sequence: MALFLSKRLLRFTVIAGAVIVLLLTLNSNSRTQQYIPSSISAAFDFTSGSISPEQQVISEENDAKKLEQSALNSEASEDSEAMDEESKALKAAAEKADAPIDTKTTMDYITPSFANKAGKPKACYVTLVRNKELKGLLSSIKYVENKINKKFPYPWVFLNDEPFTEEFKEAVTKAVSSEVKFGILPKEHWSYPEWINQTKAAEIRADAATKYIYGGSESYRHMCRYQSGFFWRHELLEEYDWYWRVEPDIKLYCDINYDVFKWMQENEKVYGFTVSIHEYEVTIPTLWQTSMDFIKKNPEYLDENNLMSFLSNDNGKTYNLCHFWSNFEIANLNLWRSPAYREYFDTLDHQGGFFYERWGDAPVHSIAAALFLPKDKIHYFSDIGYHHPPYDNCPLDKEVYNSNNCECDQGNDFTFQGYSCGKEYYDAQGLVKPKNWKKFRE
The experiment is described as above.

The next experiment concerns the target T4, Ktr1-3HA (S. cerevisiae) (UniProt P27810).
T4 sequence: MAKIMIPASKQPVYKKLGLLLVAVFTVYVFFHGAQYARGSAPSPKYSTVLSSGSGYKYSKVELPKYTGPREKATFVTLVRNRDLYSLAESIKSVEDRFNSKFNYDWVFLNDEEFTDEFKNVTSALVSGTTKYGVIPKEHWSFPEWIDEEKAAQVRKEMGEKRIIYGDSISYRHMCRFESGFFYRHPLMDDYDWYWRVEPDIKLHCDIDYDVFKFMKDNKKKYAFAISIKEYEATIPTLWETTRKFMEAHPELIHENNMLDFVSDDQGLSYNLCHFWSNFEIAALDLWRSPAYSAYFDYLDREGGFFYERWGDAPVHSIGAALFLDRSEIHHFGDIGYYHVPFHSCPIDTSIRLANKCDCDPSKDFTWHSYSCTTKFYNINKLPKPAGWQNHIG
The description is as above.

Experiment [3] deals with T5, 6myc-Erv41 (S. cerevisiae) (UniProt Q04651).
T5 sequence: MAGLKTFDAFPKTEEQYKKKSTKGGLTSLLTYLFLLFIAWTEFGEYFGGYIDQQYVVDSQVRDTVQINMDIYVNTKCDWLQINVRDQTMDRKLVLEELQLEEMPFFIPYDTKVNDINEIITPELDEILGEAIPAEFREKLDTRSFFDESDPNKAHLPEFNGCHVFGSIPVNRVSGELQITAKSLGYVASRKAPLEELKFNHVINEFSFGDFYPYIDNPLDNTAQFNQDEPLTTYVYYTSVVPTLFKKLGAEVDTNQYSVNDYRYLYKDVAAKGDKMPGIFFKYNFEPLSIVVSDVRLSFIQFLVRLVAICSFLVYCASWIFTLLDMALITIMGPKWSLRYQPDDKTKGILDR
The experiment is described as follows: co-IP; Δerv41 or Δerv46 cells expressing 6myc-Erv41 or 6myc-Erv46 and Ktr4-3HA or Ktr3-3HA; glass-bead lysate solubilized with 1% Triton X-100 (text; the legend says prepared as in Fig. 4); precipitated with anti-myc mAb 9E10; blotted with anti-HA, and with anti-Erv41 and anti-Erv46.

Experiment [4] concerns the target T2, Ktr4-3HA (S. cerevisiae). The experiment is described as follows: co-IP; strains with Erv41 or Erv41ΔC and Ktr4-3HA; lysate solubilized with 1% digitonin; proteins co-immunoprecipitated with Ktr4-3HA blotted with anti-Erv41.

Results are given in words; binding and its absence hold for the method and conditions named. In cells and extracts the contact can be indirect. Some results given as binding are weak or reduced against the parent protein; the word gives no strength. For some assays here: Where a sequence is shown, tags or fusion partners need not be part of it.

B1: Erv41 (protein, UniProt Q04651 1-352)
chain: MAGLKTFDAFPKTEEQYKKKSTKGGLTSLLTYLFLLFIAWTEFGEYFGGYIDQQYVVDSQVRDTVQINMDIYVNTKCDWLQINVRDQTMDRKLVLEELQLEEMPFFIPYDTKVNDINEIITPELDEILGEAIPAEFREKLDTRSFFDESDPNKAHLPEFNGCHVFGSIPVNRVSGELQITAKSLGYVASRKAPLEELKFNHVINEFSFGDFYPYIDNPLDNTAQFNQDEPLTTYVYYTSVVPTLFKKLGAEVDTNQYSVNDYRYLYKDVAAKGDKMPGIFFKYNFEPLSIVVSDVRLSFIQFLVRLVAICSFLVYCASWIFTLLDMALITIMGPKWSLRYQPDDKTKGILDR
As to B1, the binding result in experiment [1] was “binds”.

B2: Svp26-FLAG (protein, UniProt P38869 1-228)
chain: MLLELISYAGTVSGFLFLTLSIASGLYYISELVEEHTEPTRRFLTRAIYGIILILILLLLLDGFPFKLTLFSIACYIVYYQNLKSFPFISLTSPTFLLSCVCVVLNHYFWFKYFNDTEVPPQFKFDPNYIPRRRASFAEVASFFGICVWFIPFALFVSLSAGDYVLPTTSEQHMAKKNDDITTNNQPKFRKRAVGLARVVINSVRKYIYSLARVFGYEIEPDFDRLAV
As for B2, the binding entry is “binds weakly” with Ktr4-3HA (S. cerevisiae) [2], “binds weakly” with Kre2-3HA (S. cerevisiae) and “binds” in the experiment with Ktr1-3HA (S. cerevisiae).

B3: Erv46 (protein, UniProt P39727 1-415)
chain: MKRSTLLSLDAFAKTEEDVRVRTRAGGLITLSCILTTLFLLVNEWGQFNSVVTRPQLVVDRDRHAKLELNMDVTFPSMPCDLVNLDIMDDSGEMQLDILDAGFTMSRLNSEGRPVGDATELHVGGNGDGTAPVNNDPNYCGPCYGAKDQSQNENLAQEEKVCCQDCDAVRSAYLEAGWAFFDGKNIEQCEREGYVSKINEHLNEGCRIKGSAQINRIQGNLHFAPGKPYQNAYGHFHDTSLYDKTSNLNFNHIINHLSFGKPIQSHSKLLGNDKRHGGAVVATSPLDGRQVFPDRNTHFHQFSYFAKIVPTRYEYLDNVVIETAQFSATFHSRPLAGGRDKDHPNTLHVRGGIPGMFVFFEMSPLKVINKEQHGQTWSGFILNCITSIGGVLAVGTVMDKLFYKAQRSIWGKKSQ
As for B3, the binding entry in experiment [3] was “binds”.

B4: Erv41ΔC (domain or fragment, UniProt Q04651 1-339)
chain: MAGLKTFDAFPKTEEQYKKKSTKGGLTSLLTYLFLLFIAWTEFGEYFGGYIDQQYVVDSQVRDTVQINMDIYVNTKCDWLQINVRDQTMDRKLVLEELQLEEMPFFIPYDTKVNDINEIITPELDEILGEAIPAEFREKLDTRSFFDESDPNKAHLPEFNGCHVFGSIPVNRVSGELQITAKSLGYVASRKAPLEELKFNHVINEFSFGDFYPYIDNPLDNTAQFNQDEPLTTYVYYTSVVPTLFKKLGAEVDTNQYSVNDYRYLYKDVAAKGDKMPGIFFKYNFEPLSIVVSDVRLSFIQFLVRLVAICSFLVYCASWIFTLLDMALITIMGPKWSLR
With B4, in the experiment with Ktr4-3HA (S. cerevisiae) [4], the binding result is reported as “binds”.

B5: Ktr4-3HA (protein, UniProt P38131 1-464)
chain: MRFLSKRILKPVLSVIILISIAVTVVLYFLTANENYLQAVKDSAKSQYASLRESYKSITGKTESADELPDHDAEVLDSIMDRLHEPLYEKDTFDPNEVLAENKQLYEEFLLQEISEPKVDNLVRSGDPLAGKAKGTILSLVRNSDLEDIISSIQQLEEEYNKNFGYPYTFLNDEEFTDEFKDGIKSILPKDRVVEFGTIGPDNWNMPDSIDRERYDQEMDKMSKENIQYAEVESYHNMCRFYSKEFYHHPLLSKYKYVWRLEPNVNFYCKINYDVFQFMNKNDKIYGFVLNLYDSPQTIETLWTSTMDFVEEHPNYLNVNGAFAWLKDNSQNPKNYDYTQGYSTCHFWTNFEIVDLDFLRSEPYEKYMQYLEEKGGFYYERWGDAPVRSLALALFADKSSIHWFRDIGYHHTPYTNCPTCPADSDRCNGNCVPGKFTPWSDLDNQNCQATWIRHSMSEEELEMY
On to B5, for which the binding entry is on record as “no binding” in experiment [3] and “binds” in experiment [1].

The values above are taken from publication PMC4001239.
